Test results from paper PMC5040961.

Target: T1, FLAG-tagged Lgl1 (Lethal giant larvae 1) (mouse) (UniProt Q80Y17)
T1 sequence: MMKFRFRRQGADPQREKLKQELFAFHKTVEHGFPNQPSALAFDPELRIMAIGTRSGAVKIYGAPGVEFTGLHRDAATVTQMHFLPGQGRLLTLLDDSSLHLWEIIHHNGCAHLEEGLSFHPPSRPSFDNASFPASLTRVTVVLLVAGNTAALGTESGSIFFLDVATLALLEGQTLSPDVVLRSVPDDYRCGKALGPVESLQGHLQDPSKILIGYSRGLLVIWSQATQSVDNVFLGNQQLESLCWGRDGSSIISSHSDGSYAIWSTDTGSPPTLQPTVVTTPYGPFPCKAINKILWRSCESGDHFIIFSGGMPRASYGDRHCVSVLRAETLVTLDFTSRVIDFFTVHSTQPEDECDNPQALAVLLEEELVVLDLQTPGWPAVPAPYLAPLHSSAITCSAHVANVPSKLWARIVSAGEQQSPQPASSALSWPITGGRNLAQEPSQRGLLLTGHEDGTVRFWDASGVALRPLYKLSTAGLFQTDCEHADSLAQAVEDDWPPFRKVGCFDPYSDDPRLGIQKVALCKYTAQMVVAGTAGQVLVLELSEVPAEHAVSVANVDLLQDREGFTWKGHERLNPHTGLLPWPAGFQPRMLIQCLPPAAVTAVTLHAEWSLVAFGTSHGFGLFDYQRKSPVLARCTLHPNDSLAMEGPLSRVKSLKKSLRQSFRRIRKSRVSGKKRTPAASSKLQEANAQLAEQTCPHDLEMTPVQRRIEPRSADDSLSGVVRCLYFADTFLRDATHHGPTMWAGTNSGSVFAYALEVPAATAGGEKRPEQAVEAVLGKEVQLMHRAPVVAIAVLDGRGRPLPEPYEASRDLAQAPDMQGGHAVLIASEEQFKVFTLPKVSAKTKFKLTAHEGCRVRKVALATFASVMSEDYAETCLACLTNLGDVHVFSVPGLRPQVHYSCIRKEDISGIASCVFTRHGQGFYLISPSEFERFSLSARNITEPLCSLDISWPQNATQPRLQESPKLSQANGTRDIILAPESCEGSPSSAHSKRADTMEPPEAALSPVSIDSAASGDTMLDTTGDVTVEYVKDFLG
Experiment: co-IP; lysates of HEK293T cells co-expressing HA-PKCζ-wt or HA-PKCζ-Smut with FLAG-Lgl1 (NP40 lysis buffer); IP with anti-FLAG M2 affinity gel, 1-2 h at 4 °C; western blot with HA and FLAG antibodies

| Substance | binding |
| --- | --- |
| HA-PKCζ-Smut (PKCζ-SUMOylation-defective mutant, K225/284/378R) (human) (enzyme) | binds |
| HA-PKCζ-wt (human) (enzyme) | binds |

No constants are given. Whether binding was seen depends on the method and setting. In cells and extracts the contact can be indirect. Binding can be weak; no strength is given. Where a sequence is shown, tags or fusion partners need not be part of it.
